Data reported in PMC4231747.

Sequences of proteins named here, by UniProt entry; tags and fusion partners are left off.
UniProt P40160: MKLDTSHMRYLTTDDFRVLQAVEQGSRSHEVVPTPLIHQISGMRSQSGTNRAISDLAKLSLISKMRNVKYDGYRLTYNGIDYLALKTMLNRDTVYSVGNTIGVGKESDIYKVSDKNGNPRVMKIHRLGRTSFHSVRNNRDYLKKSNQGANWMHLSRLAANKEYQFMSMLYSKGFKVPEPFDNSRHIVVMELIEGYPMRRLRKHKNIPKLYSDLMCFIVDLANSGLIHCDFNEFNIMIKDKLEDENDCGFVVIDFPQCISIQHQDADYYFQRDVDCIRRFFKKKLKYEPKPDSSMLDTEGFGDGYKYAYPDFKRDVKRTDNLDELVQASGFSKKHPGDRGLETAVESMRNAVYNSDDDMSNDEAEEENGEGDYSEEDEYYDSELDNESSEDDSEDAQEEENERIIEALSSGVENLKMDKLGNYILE

Experiments:
Assay in all cases: affinity purification with mass spectrometry; pre-ribosomal particles purified from yeast by the tagged bait (Nob1-HTP, Pno1-TAP, Rio2-TAP, Rio1-TAP), fractionated on a Superose 6 gel filtration column; elution fractions 1-5 digested and analysed by LC-MS/MS
[1] = molecular target: T1, Pno1-TAP (S. cerevisiae), Q99216; conditions: remark: other sources report otherwise
T1 chain: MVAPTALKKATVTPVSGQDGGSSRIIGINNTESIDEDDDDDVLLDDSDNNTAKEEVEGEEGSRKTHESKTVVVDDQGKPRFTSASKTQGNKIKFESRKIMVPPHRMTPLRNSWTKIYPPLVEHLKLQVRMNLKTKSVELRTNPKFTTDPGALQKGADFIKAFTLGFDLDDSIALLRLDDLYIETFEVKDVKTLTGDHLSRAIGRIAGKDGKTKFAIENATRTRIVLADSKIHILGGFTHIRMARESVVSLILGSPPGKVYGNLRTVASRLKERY

[2] = molecular target: T2, Nob1-HTP (S. cerevisiae), Q08444; conditions: remark: other sources report otherwise
T2 chain: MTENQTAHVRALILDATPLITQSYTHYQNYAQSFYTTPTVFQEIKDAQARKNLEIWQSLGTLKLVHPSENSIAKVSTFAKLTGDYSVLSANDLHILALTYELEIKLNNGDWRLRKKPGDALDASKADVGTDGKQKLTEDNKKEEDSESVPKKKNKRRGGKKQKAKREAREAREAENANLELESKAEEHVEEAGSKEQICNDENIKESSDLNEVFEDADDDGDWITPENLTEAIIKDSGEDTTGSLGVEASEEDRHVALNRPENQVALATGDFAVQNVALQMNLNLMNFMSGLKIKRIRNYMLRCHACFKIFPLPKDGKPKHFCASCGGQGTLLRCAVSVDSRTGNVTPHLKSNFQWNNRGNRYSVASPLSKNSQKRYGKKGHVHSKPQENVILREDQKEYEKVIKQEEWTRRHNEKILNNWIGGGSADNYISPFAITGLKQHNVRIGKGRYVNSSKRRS

[3] = molecular target: T3, Rio1-TAP (S. cerevisiae) (UniProt Q12196)
T3 sequence: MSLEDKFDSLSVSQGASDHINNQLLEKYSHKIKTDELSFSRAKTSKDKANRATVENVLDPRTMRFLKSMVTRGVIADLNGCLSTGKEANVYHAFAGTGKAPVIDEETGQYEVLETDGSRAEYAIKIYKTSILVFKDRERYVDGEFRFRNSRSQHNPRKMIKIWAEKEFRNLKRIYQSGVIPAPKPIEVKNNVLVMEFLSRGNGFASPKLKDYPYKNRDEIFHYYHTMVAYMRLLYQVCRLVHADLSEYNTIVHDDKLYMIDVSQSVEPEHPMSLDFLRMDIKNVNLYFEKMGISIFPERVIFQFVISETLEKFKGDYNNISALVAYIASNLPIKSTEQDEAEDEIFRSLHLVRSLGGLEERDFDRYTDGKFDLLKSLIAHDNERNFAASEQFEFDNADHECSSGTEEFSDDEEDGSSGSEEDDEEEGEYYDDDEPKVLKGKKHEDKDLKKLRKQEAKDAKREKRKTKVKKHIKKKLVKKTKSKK

[4] = molecular target: T4, Pno1-TAP (S. cerevisiae) (UniProt Q99216)
T4 sequence: T1 chain

[5] = molecular target: T5, Nob1-HTP (S. cerevisiae) (UniProt Q08444)
T5 sequence: T2 chain

[6] = molecular target: Rio2-TAP (S. cerevisiae) (UniProt P40160)

Measured: binding

B1: Rio1, Q12196 1-484 (enzyme)
chain: T3 sequence
binds: [1] | [2]

B2: 40S subunit ribosomal protein Rps4A (protein, UniProt P0CX35 1-261)
chain: MARGPKKHLKRLAAPHHWLLDKLSGCYAPRPSAGPHKLRESLPLIVFLRNRLKYALNGREVKAILMQRHVKVDGKVRTDTTYPAGFMDVITLDATNENFRLVYDVKGRFAVHRITDEEASYKLGKVKKVQLGKKGVPYVVTHDGRTIRYPDPNIKVNDTVKIDLASGKITDFIKFDAGKLVYVTGGRNLGRIGTIVHKERHDGGFDLVHIKDSLDNTFVTRLNNVFVIGEQGKPYISLPKGKGIKLSIAEERDRRRAQQGL
binds: [3] | [4] | [5] | [6]

No constants are given. Whether binding was seen depends on the method and setting. In cells and extracts the contact can be indirect. Here binding means that the protein was enriched with, or labelled near, the bait; the list need not be complete.
